Holding throughout (test): co-IP; PES:Flag co-expressed with GFP fusions in N. benthamiana leaves by agroinfiltration; cell extracts immunoprecipitated with anti-GFP antibodies, co-precipitated PES:Flag detected by immunoblot with anti-Flag antibodies
Assay [1] concerns the target GFP:∆5WD (WDR12 lacking five C-terminal WD40 domains) (Arabidopsis).
The target of assay [2] is GFP:∆6WD (BOP1 lacking the C-terminal region containing six WD40 domains) (Arabidopsis).
The target of assay [3] is GFP:∆NLE (WDR12 lacking the NLE domain) (Arabidopsis).
For assay [4], the target named is GFP:∆NT (BOP1 lacking the N-terminal region including the BOP-NT domain) (Arabidopsis).

These are yes or no findings as the source states them, for the method shown. In cells and extracts the contact can be indirect. For some of these results: A result given as binding can be weak or reduced; the word gives no strength. Where a sequence is shown, tags or fusion partners need not be part of it.

B1: Flag-fused PES (PES:Flag) (protein, UniProt Q9LYK7 1-590)
chain: MPKHYRPTGKKKEGNAARYMTRSQALKHLQVNLNLFRRLCIVKGIFPREPKKKIKGNHHTYYHVKDIAFLMHEPLLEKFREIKTYQKKVKKAKAKKNEELARLLLTRQPTYKLDRLIRERYPTFIDALRDLDDCLTMVHLFAVLPASDRENLEVKRVHNCRRLTHEWQAYISRSHALRKVFVSVKGIYYQAEIEGQKITWLTPHAIQQVFTNDVDFGVLLTFLEFYETLLAFINFKLYHSLNVKYPPILDSRLEALAADLYALSRYIDASSRGMAVEPKVDASFSSQSNDREESELRLAQLQHQLPSSEPGALMHLVADNNKEVEEDEETRVCKSLFKDLKFFLSREVPRESLQLVITAFGGMVSWEGEGAPFKEDDESITHHIIDKPSAGHLYLSRVYVQPQWIYDCVNARIILPTEKYLVGRIPPPHLSPFVDNEAEGYVPDYAETIKRLQAAARNEVLPLPGVGKEDLEDPQNLLYAGVMSRAEEAEAAKNKKKMAAQEKQYHEELKMEINGSKDVVAPVLAEGEGEESVPDAMQIAQEDADMPKVLMSRKKRKLYDAMKISQSRKRSGVEIIEQRKKRLNDTQPSS
Take B1: the binding result in assay [1] is reported as “no binding”; in assay [2] it was “no binding”; in assay [3], “binds”; in assay [4] it was “binds”.

These data come from paper PMC5014167.
